Results reported in patent US20040018238A1, “Biodegradable vehicles and delivery systems of biolgically active substances” (priority 2003, published 2004).
Counter-ions that a name gives are not always drawn. For at least one compound, name, drawing or mass did not settle the structure.

Assay: In vitro release of oxytetracycline from drug-loaded formulations at 37° C. in isotonic phosphate buffer containing sodium sulfite
Format: physicochemical
Conditions: compared with oxytetracycline base; 25% 50/50 PLGA (i.v. 0.59) and 75% PEG 400; drug 20%
Protocol: A polymer (25% w/w of 50/50 lactide-co-glycolide copolymer, inherent viscosity of 0.59) was dissolved in a minimum quantity of acetone. Pure polyethylene glycol 400 (PEG 400) was added to the polymer solution. The solution was stirred to yield a uniform mixture. Acetone was evaporated from the mixture by heating at 60-75° C. with constant stirring. The blank formulation was kept in a vacuum oven at 60-75° C. overnight to ensure complete removal of acetone. […] Three different concentrations of oxytetracycline base (either 10, 20 or 30% w/w) were added to the blank formulation and mixed thoroughly to ensure uniform distribution of the drug in the formulations. Drug release from the drug-loaded formulations was performed at 37° C. in isotonic phosphate buffer containing sodium sulfite as an antioxidant. […] This increase occurred because, at higher drug-loadings, more drug is available on the surface of the formulations for release. […]
(§1) A polymer (25% w/w of 50/50 lactide-co-glycolide copolymer, inherent viscosity of 0.59) was dissolved in a minimum quantity of acetone. […]
Three different concentrations (10, 20 or 25% w/w) of a polymer (50/50 lactide-co-glycolide copolymer, inherent viscosity of 0.59) were dissolved in a minimum quantity of acetone. […]
as §1

Structure (SMILES): CN(C)[C@@H]1C(O)=C(C(N)=O)C(=O)[C@@]2(O)C(O)=C3C(=O)c4c(O)cccc4[C@@](C)(O)[C@H]3[C@H](O)[C@@H]12 [oxytetracycline hydrochloride]
- drug release: considerably faster
